# Screening data

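Uptake of anthrax lethal toxin into cultured cells, read by FRET (460/530 nm ratio) and reported from the 460 nm channel; the cell line is not named here. Each compound was tested as a concentration series from about 0.0005 to 40 µM. The number is the fitted AC50 of the 460 nm signal alone; lower values mean a more potent effect. A falling signal goes with compounds filed as inhibitors or cytotoxic, a rising one with activators or fluorescent compounds (inferred from the filed classes).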

Values are in nM. Common to all entries: measured here: 460 nm channel. Part of the compounds only, not a random draw; the main read-out is not listed here. A potency from a partial, single-point or poor curve is only a rough figure. The first word of each remark tells which way the curve ran; it can be opposite to the aim of the assay.

SMILES,AC50 (nM),curve
CCCC/C=C/C(NC(=O)c1ccccc1)c1ccccc1 (stereo not drawn),3162,"falling, single point"
O=C(N[C@@H](Cc1ccccc1)C(=O)CCl)OCc1ccccc1,15848,"falling, partial curve"
Cc1sc2nc(CN3CCOCC3)nc(Oc3ccc(NC(=O)c4ccco4)cc3)c2c1C,79.43,"rising, full curve, poor fit"
C=CCn1c(Cc2cccs2)nnc1SCC(=O)c1ccc(F)cc1,1000,"rising, single point"
O=c1[nH]c2cc3c(cc2cc1C(c1nnnn1C1CCCC1)N1CCCc2ccccc21)OCCO3 (stereo not drawn),5012,"falling, partial curve"
Cc1noc(C)c1C(=O)N1CCN(C(=O)c2sc3cc(Cl)ccc3c2Cl)CC1,3981,"rising, single point"
CCCCn1c(CN2CCN(c3cccc(Cl)c3)CC2)nc2c1c(=O)n(C)c(=O)n2C,3162,"rising, single point"
CCCC(c1nnnn1Cc1ccccc1)N1CCN(c2ccccc2OC)CC1 (stereo not drawn),31622,"falling, single point"
Clc1ccc2c(NC3CCC(N4CCCCC4)CC3)ccnc2c1 (stereo not drawn),2512,"falling, partial curve"
COC(=O)[C@@]1(Cc2ccc(OC)cc2)[C@H]2c3cc(C(=O)N4CCCC4)n(Cc4ccc(C(F)(F)F)nc4)c3C[C@H]2CN1C(=O)c1ccccc1,10000,"rising, single point"
COc1cc2c(cc1OC)-c1cc3nc4ccccc4nc3n1C(C)(C)C2,1000,"falling, full curve"
CC(C)(C)c1ccc(-c2nnc3sc(-c4ccccn4)nn23)cc1,10000,"falling, partial curve"
Cc1nc2nc[nH]n2c(=O)c1NC(=O)CC12CC3CC(CC(C3)C1)C2,12589,"rising, single point"
CN(C1CCCCC1)S(=O)(=O)c1ccc(NC(=O)c2ccc(Br)o2)cc1,794.3,"falling, full curve, poor fit"
C=CCc1cccc(CNc2nc3ccccc3n2CCC)c1O,10000,"falling, single point"
CCC(C)n1c(-c2cccs2)nc2nc3ccccc3nc21 (stereo not drawn),10000,"rising, partial curve"
C[C@H]1[C@H]2CC[C@H]3[C@@H]4CC=C5C[C@@H](N(C)C)CC[C@]5(C)[C@H]4CC[C@]23CN1C,7943,"falling, partial curve, poor fit"
CCOC(=O)C1=C(N)Oc2cc(C)n(CCc3ccc(OC)c(OC)c3)c(=O)c2C1c1cccnc1 (stereo not drawn),125.9,"rising, full curve, poor fit"
COc1cccc(-c2ccc3ncnc(N4CCNCC4)c3c2)c1,3981,"falling, single point"
CCCc1[nH]nc2c1C1(C(=O)N(C(C)C)c3ccccc31)C(C#N)=C(N)O2 (stereo not drawn),3981,"rising, partial curve"
COc1cccc(-c2cncnc2NCc2cccc(C)c2)c1,31622,"falling, single point"
CSc1nc(C2CC2)cc(-c2cccs2)c1C#N,3981,"falling, full curve"
N#Cc1nc(-c2cccc3ccccc23)oc1N1CCCCC1,31622,"rising, partial curve"
FC(F)C(F)(F)C(F)(F)C(F)(F)c1cc(-c2ccccc2)n[nH]1,19952,"falling, single point"
CC(C)OCCCN1C(=O)c2[nH]nc(-c3ccccc3O)c2C1c1cccc(Cl)c1 (stereo not drawn),1000,"rising, partial curve"
Cc1cccc(CCNC(=O)C2CCC(CNc3c(N4CCCC4)c(=O)c3=O)CC2)c1 (stereo not drawn),19952,"rising, partial curve"
CCOC(=O)C1CCCN(c2c(NCCCN(CC)c3cccc(C)c3)c(=O)c2=O)C1 (stereo not drawn),10000,"rising, single point"
CCOC(=O)Cc1nnc(NC(=O)CSc2ccccc2)s1,5012,"falling, single point"
COc1ccc(NC(=O)c2ccc(COc3ccccc3Br)o2)cc1OC,3981,"falling, partial curve"
C[C@](N)(COP(=O)(O)O)C(=O)O,12589,"falling, single point"
Cc1ccc(SCc2cc(=O)[nH]c(N3CCCCC3)n2)cc1,1259,"falling, partial curve"
Cc1ccc(S(=O)(=O)N2CCCC(C(=O)NCCc3ccc4c(c3)OCO4)C2)cc1 (stereo not drawn),25118,"rising, partial curve"
Cc1ccc(NS(=O)(=O)c2cc(C(=O)N3CCN(C)CC3)ccc2C)cc1,25.12,"rising, full curve, poor fit"
CC(C)(C)c1nnc2sc(SCC(=O)N3CCCc4ccccc43)nn2c1=O,1259,"rising, partial curve"
CCOC(=O)N1CCC(Nc2c(N3CCN(c4cc(Cl)ccc4C)CC3)c(=O)c2=O)CC1,5012,"rising, single point"
Cc1cc(N=Nc2ccccc2C)ccc1N,7943,"falling, full curve"
Cc1ccc(-c2csc(N3CCC(NS(=O)(=O)c4ccc5c(c4)OCCO5)CC3)n2)cc1,12589,"falling, partial curve"
COc1cccc(Cn2c(=O)c(-c3ccccc3)nc3cnc(N4CCN(C)CC4)nc32)c1,5012,"rising, partial curve"
Cc1cc2c(cc(C(=O)O)n2C)s1,10,"falling, full curve, poor fit"
COc1cccc(-n2c(C)c(C(C)=O)c(C(C)=O)c2C)c1,7943,"rising, partial curve, poor fit"
CNc1sc(C(=O)c2cccs2)c(N)c1-c1nc2ccccc2s1,3162,"falling, full curve"
Cc1cc(C(C)(C)C)c(O)c(C)c1CC1=NCCN1,12589,"falling, partial curve"
COc1ccc(N(Cc2cc3ccccc3[nH]c2=O)C(=O)C2CCCO2)cc1 (stereo not drawn),50.12,"falling, full curve, poor fit"
COc1cc(NC(=O)CN(c2ccc(C)cc2)S(=O)(=O)c2c(C)nn(C)c2C)cc(OC)c1,12589,"rising, single point"
Cc1ccc(S(=O)(=O)N(CC(=O)N2CCCC2)C2CCCCC2)cc1,631,"rising, full curve"
CCCCOCCCNS(=O)(=O)c1ccccc1,1585,"falling, partial curve"
CCOc1cc(S(=O)(=O)N2CC=C(c3ccc(F)cc3)CC2)c(OCC)cc1-n1cnnn1,15.85,"rising, full curve, poor fit"
Cc1noc(C)c1-c1cc(NC2CC2)ncn1,19952,"falling, single point"
CC(CN1CCOCC1)(NS(=O)(=O)c1ccccc1)c1ccccc1 (stereo not drawn),25118,"rising, single point"
Nc1nc(-c2ccc(Cl)cc2)nn1C(=O)c1cccnc1,100,"falling, full curve"
C[C@@H](C(=O)Nc1ccc2ccccc2c1)[C@@H]1C[C@@]1(C)[C@@H](NS(=O)(=O)c1ccc2ccccc2c1)c1ccccc1,12589,"falling, partial curve"
CCCCc1ccc(Nc2nc(CCC)cc(=O)[nH]2)cc1,15848,"falling, partial curve"

For reference, 3 entries once more:

For CC(CN1CCOCC1)(NS(=O)(=O)c1ccccc1)c1ccccc1 (stereo not drawn) the result was AC50 25118 nM (rising, single point).
For COc1cc2c(cc1OC)-c1cc3nc4ccccc4nc3n1C(C)(C)C2 the result was AC50 1000 nM (falling, full curve).
For COc1cccc(-n2c(C)c(C(C)=O)c(C(C)=O)c2C)c1 the result was AC50 7943 nM (rising, partial curve, poor fit).

Source: PubChem BioAssay AID912 (NCATS, 2007).